Assay results from article PMC10611586.

Molecular target: HA–Fubi^C57A-VS (human) (UniProt P62861)
Assay: affinity purification with mass spectrometry; HeLa lysate (1 mg protein) incubated with 5 µg HA-tagged VS probe for 1 h at 37 °C, compared with lysate pretreated with 10 mM IAA; covalent conjugates enriched on anti-HA affinity gel; label-free quantification; only the target purified

- binding: no binding
Substance: endogenous USP7 (from UniProt Q93009 1-1102) (enzyme)

Results are given in words; binding and its absence hold for the method and conditions named. In cells and extracts the contact can be indirect. These calls come from enrichment with a bait or labelling near it, and not all partners need be listed. A no says only that the protein was not detected with the bait.
